PubChem BioAssay AID1259327, Drosophila RNAi Screening Center, 2017

Aim: 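Knock-downs altering cellular ATP with no metal added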
System: Drosophila S2R+ cells
Knock-down reagent: long dsRNA against Drosophila genes
Time to read-out: 5 days (water added on day 4, read one day later)
Treatment: water added as vehicle, no metal, one day before read-out
Measured: 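Total ATP measured by luciferase light, scaled to plate mean, duplicates averaged, then z-scored across plates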
Direction: ATP z-score: higher = more total ATP than typical wells; ATP luminescence: higher = more total ATP
Active means: 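Called active when the ATP z-score exceeds 1.5 or falls below -1.5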
Calls: active = hit: ATP up or down; inactive = no clear ATP change
This is one part, drawn at random, of about 3,100 reagents tested. In the full data, 378 (12%) were called active. 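Hits include both directions; z-score sign shows ATP rise or fall; raw luminescence values are not plate-normalised.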 Reagents against one gene are numbered here. A plus sign joins genes that one reagent is predicted to hit. No sequences are given here. Not given: the amount of reagent.

target	reagent	ATP z-score, duplicate mean	ATP luminescence, replicate 1 (RLU)	ATP luminescence, replicate 2 (RLU)	Outcome
CG2736	1	0.134	7.25e5	7.66e5	inactive
CG2736	2	1.9	8.21e5	6.64e5	active
Scgalpha (Sarcoglycan alpha)	1	0.552	8.15e5	7.55e5	inactive
Scgalpha (Sarcoglycan alpha)	2	0.562	8.89e5	8.91e5	inactive
OtopLb (Otopetrin-like b)	1	-0.579	3.78e5	5.04e5	inactive
OtopLb (Otopetrin-like b)	2	0.143	9.81e5	9.98e5	inactive
crq (croquemort)	1	-0.0533	7.10e5	6.90e5	inactive
ATP8A (ATPase 8A)	1	0.139	7.21e5	7.72e5	inactive
ATP8A (ATPase 8A)	2	0.517	7.42e5	5.90e5	inactive
Eato (Engulfment ABC Transporter in the ovary)	1	0.284	4.73e5	5.27e5	inactive
Eato (Engulfment ABC Transporter in the ovary)	2	0.264	7.55e5	7.53e5	inactive
rt (rotated abdomen)	1	-0.308	8.58e5	8.53e5	inactive
rt (rotated abdomen)	2	-0.113	4.38e5	4.52e5	inactive
CG14439	1	0.218	5.99e5	6.92e5	inactive
CG14439	2	0.623	4.69e5	5.48e5	inactive
Cox10 (Cytochrome c oxidase assembly factor 10)	1	0.287	5.34e5	4.61e5	inactive
Cox10 (Cytochrome c oxidase assembly factor 10)	2	0.259	4.64e5	4.76e5	inactive
CG12209	1	-1.59	4.86e5	4.66e5	active
Osi13 (Osiris 13)	1	-0.0815	9.06e5	8.65e5	inactive
CG8026	1	-0.818	5.45e5	5.46e5	inactive
CG43693	1	-1.28	5.97e5	6.09e5	inactive
CG43693	2	-0.0824	7.58e5	6.86e5	inactive
Sr-CIV (Scavenger receptor class C, type IV)	1	-0.243	7.22e5	6.79e5	inactive
Sr-CIV (Scavenger receptor class C, type IV)	2	0.804	9.76e5	8.68e5	inactive
Alg3 (ALG3, alpha-1,3- mannosyltransferase)	1	0.596	7.54e5	8.36e5	inactive
CG5078	1	0.269	1.02e6	8.43e5	inactive
CG12061	1	0.0437	7.54e5	7.40e5	inactive
CG12061	2	-0.705	3.51e5	5.13e5	inactive
Cln3	1	-0.284	8.72e5	8.46e5	inactive
Cln3	2	0.204	1.11e6	1.07e6	inactive
CG7218	1	0.276	7.57e5	7.12e5	inactive
CG7218	2	0.2	7.92e5	8.60e5	inactive
Tsp42Ep (Tetraspanin 42Ep)	1	-0.3	6.52e5	6.97e5	inactive
CG42322	1	-0.237	6.91e5	6.71e5	inactive
CG42322	2	-0.774	2.19e5	7.93e5	inactive
CG13223	1	-0.484	6.44e5	5.07e5	inactive
CG13223	2	0.472	4.34e5	5.63e5	inactive
CG13229	1	-0.459	5.62e5	5.94e5	inactive
CG10051	1	0.0206	6.26e5	6.16e5	inactive
Stt3B	1	0.0324	3.01e5	7.65e5	inactive
Stt3B	2	0.102	5.17e5	4.26e5	inactive
Tyler + Shawn	1	0.0531	7.30e5	6.98e5	inactive
Tyler + Shawn	2	2.1	1.06e6	7.40e5	active
nAChRbeta1 (nicotinic Acetylcholine Receptor beta1)	1	-0.0268	7.06e5	7.75e5	inactive
nAChRbeta1 (nicotinic Acetylcholine Receptor beta1)	2	-0.0738	6.99e5	7.48e5	inactive
CG32204	1	-0.327	4.65e5	7.00e5	inactive
CG32204	2	0.0662	8.81e5	7.85e5	inactive
rho-7 (rhomboid-7)	1	0.677	7.94e5	5.67e5	inactive
CG15890	1	-0.298	8.15e5	7.19e5	inactive
CG30049	1	0.0366	6.25e5	5.39e5	inactive
CG30049	2	0.249	1.24e6	1.21e6	inactive
MFS16 (Major Facilitator Superfamily Transporter 16)	1	0.937	9.04e5	7.49e5	inactive
MFS16 (Major Facilitator Superfamily Transporter 16)	2	-0.853	9.46e5	1.16e6	inactive
GABPI (beta4GalNAcTB pilot)	1	1.41	5.25e5	6.35e5	inactive
GABPI (beta4GalNAcTB pilot)	2	1.06	1.06e6	1.03e6	inactive
CG3149	1	0.495	8.68e5	6.49e5	inactive
CG3149	2	-0.0228	1.02e6	9.92e5	inactive
Ir7e (Ionotropic receptor 7e)	1	0.231	7.59e5	7.43e5	inactive
CG7342	1	-0.0431	7.28e5	6.75e5	inactive
CG7342	2	-0.607	4.20e5	4.06e5	inactive
CG7255	1	0.106	7.66e5	7.18e5	inactive
Gr59e (Gustatory receptor 59e)	1	0.547	7.90e5	7.79e5	inactive
Gr59e (Gustatory receptor 59e)	2	-1.33	3.61e5	3.90e5	inactive
CG15221	1	1.36	7.34e5	8.18e5	inactive
CG11155	1	0.29	9.61e5	9.07e5	inactive
CG11155	2	-0.146	7.20e5	6.62e5	inactive
CG11155	3	0.113	8.75e5	8.01e5	inactive
Fas3 (Fasciclin 3)	1	2.82	1.07e6	9.79e5	active
Fas3 (Fasciclin 3)	2	3.13	8.89e5	7.99e5	active
Fas3 (Fasciclin 3)	3	0.589	9.55e5	8.37e5	inactive

Records listed so far whose target name begins with M or m:
target	reagent	ATP z-score, duplicate mean	ATP luminescence, replicate 1 (RLU)	ATP luminescence, replicate 2 (RLU)	Outcome
MFS16 (Major Facilitator Superfamily Transporter 16)	1	0.937	9.04e5	7.49e5	inactive
MFS16 (Major Facilitator Superfamily Transporter 16)	2	-0.853	9.46e5	1.16e6	inactive
